US20110182905A1
Results are given in words; binding and its absence hold for the method and conditions named. Some results given as binding are weak or reduced against the parent protein; the word gives no strength.

Chains of the proteins cited; added tags and fusions are not shown. Lines headed by an entry give the natural chain unless they say otherwise; changes in a name come on top.
UniProt P04141: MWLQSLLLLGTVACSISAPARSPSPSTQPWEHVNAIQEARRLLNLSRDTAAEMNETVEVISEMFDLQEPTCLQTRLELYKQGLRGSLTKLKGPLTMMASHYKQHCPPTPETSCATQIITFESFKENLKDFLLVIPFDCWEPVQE

Biological target: recombinant hGM-CSF derived from yeast (Leukine, Berlex) (human) (UniProt P04141)
Test: SPR (Biacore)

B1: EV1019 (antibody, human IgG1, lambda, V domains shown)
VH: QAQLVESGGGVVKPGGSLRLSCISSKFTFSSHAMHWVRQAPGKGLEWVAVIWHDGSKKYYADSVKGRFSVSRDNSKNTLFLQMDSLRAEDTAVYFCGKEWVGGTCDSWGQGTLVIVSS
VL: QPALTQEASVSGTVGQTVTLLCSGNSSNIGSYAVGWYQQISRGAPKIVVFGKSPASGIPDRFSGSKSGTTASLLVSGLQPEDEADYYCSTWDSRLSAVLFGGGTKLTVLR
- binding: binds
